Experimental data reported in doi:10.1101/2024.05.16.594269.
No constants are given. Whether binding was seen depends on the method and setting. For part of these data: Binding seen in cells or lysates may run through a third protein. Some binding calls cover weakened binding; strength is not graded here.

Sequences of proteins named here, by UniProt entry; tags and fusion partners are left off.
UniProt Q96A61: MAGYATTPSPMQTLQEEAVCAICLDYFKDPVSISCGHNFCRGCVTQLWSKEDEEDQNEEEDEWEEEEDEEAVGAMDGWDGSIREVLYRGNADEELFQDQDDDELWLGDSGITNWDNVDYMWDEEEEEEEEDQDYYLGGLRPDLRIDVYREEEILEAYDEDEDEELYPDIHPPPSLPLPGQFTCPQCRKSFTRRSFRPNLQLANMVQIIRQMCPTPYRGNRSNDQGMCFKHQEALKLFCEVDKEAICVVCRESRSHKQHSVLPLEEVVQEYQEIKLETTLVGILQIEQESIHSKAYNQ
UniProt Q7Z6Z7: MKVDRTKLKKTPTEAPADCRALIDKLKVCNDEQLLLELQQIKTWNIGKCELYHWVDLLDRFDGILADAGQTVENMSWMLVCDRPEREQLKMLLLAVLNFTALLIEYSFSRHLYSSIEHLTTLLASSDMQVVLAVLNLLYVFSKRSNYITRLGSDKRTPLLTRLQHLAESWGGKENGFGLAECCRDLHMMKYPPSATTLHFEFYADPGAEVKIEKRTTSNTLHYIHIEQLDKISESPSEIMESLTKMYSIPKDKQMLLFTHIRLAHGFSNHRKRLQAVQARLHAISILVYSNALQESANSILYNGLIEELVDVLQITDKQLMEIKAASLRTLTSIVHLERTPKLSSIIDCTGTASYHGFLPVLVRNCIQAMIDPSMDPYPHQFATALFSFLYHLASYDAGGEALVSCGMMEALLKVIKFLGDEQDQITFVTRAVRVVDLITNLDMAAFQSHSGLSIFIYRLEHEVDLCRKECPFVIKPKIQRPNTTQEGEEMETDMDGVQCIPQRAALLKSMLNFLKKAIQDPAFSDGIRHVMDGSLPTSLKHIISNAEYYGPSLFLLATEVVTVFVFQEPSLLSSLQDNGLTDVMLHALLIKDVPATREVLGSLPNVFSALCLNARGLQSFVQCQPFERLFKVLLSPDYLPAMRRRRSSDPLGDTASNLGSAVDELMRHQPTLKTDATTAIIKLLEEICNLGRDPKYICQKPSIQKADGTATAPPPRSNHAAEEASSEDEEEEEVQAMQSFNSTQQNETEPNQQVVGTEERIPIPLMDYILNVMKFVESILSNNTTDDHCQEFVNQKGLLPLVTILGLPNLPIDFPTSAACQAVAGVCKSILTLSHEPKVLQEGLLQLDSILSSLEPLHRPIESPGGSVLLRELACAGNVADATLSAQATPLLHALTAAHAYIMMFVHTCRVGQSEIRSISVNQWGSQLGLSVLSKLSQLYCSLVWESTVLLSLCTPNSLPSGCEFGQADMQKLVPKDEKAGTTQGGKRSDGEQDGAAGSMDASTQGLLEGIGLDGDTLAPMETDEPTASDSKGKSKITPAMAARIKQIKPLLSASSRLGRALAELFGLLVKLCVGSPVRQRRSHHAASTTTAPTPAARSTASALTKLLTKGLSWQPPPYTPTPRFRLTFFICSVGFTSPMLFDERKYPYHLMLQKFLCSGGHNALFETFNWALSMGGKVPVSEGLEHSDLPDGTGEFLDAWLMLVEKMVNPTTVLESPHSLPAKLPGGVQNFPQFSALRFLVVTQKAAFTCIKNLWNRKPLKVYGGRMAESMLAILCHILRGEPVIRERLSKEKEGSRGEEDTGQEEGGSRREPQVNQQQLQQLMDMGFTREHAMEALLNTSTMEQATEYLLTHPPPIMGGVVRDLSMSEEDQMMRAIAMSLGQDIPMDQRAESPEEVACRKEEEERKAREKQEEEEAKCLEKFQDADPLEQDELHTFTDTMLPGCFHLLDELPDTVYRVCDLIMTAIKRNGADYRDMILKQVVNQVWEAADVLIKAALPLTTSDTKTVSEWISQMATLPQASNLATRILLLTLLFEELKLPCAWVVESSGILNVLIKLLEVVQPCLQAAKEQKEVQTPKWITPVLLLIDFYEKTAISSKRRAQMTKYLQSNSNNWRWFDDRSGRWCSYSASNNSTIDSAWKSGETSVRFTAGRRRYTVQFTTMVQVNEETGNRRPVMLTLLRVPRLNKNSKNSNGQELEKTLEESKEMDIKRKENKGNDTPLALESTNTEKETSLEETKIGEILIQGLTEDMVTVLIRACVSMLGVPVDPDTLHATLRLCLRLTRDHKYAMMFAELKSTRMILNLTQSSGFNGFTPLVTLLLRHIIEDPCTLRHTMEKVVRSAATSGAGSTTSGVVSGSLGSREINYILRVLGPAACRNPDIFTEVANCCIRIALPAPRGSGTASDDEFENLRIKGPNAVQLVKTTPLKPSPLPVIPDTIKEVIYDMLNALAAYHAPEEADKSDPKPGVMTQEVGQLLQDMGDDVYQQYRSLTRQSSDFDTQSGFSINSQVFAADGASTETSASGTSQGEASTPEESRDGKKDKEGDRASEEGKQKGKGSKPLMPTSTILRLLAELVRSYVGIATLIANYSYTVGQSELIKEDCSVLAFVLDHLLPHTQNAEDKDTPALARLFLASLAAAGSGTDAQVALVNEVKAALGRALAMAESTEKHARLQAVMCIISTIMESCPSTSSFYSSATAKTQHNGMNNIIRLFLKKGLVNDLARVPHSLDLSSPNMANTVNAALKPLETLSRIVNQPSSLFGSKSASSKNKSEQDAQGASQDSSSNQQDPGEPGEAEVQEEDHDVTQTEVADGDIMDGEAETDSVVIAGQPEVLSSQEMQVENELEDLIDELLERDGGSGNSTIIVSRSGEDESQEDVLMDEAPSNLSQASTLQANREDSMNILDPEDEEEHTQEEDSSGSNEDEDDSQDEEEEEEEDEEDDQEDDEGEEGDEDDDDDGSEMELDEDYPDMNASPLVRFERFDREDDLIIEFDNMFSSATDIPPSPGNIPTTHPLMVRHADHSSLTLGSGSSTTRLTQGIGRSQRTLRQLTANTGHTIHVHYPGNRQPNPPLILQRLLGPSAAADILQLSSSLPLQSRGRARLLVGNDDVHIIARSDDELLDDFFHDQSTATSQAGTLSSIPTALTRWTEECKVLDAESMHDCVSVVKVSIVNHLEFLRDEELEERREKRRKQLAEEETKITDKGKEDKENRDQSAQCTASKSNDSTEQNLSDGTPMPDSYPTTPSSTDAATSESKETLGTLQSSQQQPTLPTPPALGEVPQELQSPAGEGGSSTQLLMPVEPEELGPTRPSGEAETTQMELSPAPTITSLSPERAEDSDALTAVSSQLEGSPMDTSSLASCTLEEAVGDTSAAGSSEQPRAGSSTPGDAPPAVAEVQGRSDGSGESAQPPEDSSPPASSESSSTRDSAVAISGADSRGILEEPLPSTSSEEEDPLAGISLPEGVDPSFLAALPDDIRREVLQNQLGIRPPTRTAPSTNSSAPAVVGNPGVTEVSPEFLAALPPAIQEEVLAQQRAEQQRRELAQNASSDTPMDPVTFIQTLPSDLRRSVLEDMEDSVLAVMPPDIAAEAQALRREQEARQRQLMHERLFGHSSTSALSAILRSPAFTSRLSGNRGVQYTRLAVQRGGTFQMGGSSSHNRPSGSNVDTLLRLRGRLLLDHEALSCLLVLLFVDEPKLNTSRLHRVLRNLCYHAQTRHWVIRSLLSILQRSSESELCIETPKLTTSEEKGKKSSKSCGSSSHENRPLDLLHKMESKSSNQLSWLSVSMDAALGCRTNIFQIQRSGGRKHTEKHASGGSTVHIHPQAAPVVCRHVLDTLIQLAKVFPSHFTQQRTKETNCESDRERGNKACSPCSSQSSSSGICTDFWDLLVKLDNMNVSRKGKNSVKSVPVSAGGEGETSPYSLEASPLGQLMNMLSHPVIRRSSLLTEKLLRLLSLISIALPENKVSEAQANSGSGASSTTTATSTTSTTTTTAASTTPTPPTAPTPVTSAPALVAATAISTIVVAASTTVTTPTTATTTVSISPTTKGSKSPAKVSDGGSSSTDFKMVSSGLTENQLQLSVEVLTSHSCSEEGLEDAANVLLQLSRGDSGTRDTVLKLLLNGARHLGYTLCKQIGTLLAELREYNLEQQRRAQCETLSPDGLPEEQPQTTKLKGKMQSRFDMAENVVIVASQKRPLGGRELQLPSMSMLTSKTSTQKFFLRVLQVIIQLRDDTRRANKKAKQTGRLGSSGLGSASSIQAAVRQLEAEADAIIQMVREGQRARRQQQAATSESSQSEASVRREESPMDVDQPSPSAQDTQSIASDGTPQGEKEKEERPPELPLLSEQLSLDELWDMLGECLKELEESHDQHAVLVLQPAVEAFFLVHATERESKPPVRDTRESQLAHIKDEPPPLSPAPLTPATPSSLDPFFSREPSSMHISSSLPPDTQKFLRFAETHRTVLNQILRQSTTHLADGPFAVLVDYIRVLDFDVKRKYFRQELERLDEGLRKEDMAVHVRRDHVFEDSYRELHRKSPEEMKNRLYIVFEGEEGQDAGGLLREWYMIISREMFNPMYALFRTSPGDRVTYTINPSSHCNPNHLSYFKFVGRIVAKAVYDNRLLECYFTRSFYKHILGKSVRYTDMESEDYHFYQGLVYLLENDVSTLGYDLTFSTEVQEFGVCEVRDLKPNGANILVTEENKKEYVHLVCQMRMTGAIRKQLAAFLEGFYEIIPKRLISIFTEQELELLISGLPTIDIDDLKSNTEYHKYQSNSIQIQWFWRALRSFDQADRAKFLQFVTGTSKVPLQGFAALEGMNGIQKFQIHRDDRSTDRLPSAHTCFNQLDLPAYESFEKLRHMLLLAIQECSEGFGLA

Legend:
[1] = target: 3xHA-tagged TRIM52 (full-length, WT) (human) (UniProt Q96A61); test: co-IP
[2] = target: TwinStrep-tagged EGFP-TRIM52 (WT) (human) (UniProt Q96A61); test: co-IP

binding [1]	binding [2]	Substance
binds	–	BIRC6 (endogenous) (from UniProt Q9NR09 1-4857) (enzyme)
binds	–	HUWE1 (endogenous) (from UniProt Q7Z6Z7 1-4374) (enzyme)
–	binds	purified human HUWE1 (recombinant) (from UniProt Q7Z6Z7 1-4374) (enzyme)
